Measured values reported in patent publication US7763622B2, “Substituted 6-(2-halogennphenyl)-triazolopyrimidines” (BASF Aktiengesellschaft, priority 2002, dated 2010).
Some results were stated once for a whole list of compounds, not compound by compound.

How the values were obtained:
Format in all cases: in vivo
[1] = test system: Pyrenophora [syn. Drechslera] teres; test: Control of net blotch on barley caused by Pyrenophora teres; conditions: 250 ppm, protective spray on barley seedlings "Igri", 6 days; untreated plants infected to 90%
[2] = test system: Alternaria solani; test: Fungicidal control of early blight on tomatoes (Alternaria solani); conditions: 250 ppm, protective spray on tomato seedlings, assessed after 5 days; untreated plants infected to 90%
[3] = test system: Plasmopara viticola; test: Fungicidal control of grape downy mildew (Plasmopara viticola); conditions: 250 ppm, protective spray on potted vines "Müller Thurgau"; untreated plants infected to 95%
[4] = test system: Botrytis cinerea; test: Control of gray mould (Botrytis cinerea) on paprika leaves; conditions: 250 ppm, protective spray on paprika seedlings, five days at 22-24° C.; untreated plants infected to 85%

SMILES: CC(C)C(C)Nc1c(-c2ccc(Cl)cc2F)c(Cl)nc2ncnn12 (racemic) [Compound I-94]
- infection (% diseased leaf area) [1]: not more than 10%
- infection [2]: not more than 7%

SMILES: C[C@H](Nc1c(-c2ccc(Cl)cc2F)c(Cl)nc2ncnn12)C(F)(F)F [Compound I-101]
- infection [2]: not more than 7%

SMILES: C=C(C)CN(CC)c1c(-c2cc(F)ccc2F)c(Cl)nc2ncnn12 [Compound I-43]
- infection (% diseased leaf area) [1]: not more than 10%

SMILES: CCC(C)Nc1c(-c2cc(F)ccc2F)c(Cl)nc2ncnn12 (racemic) [Compound I-45]
- infection (% diseased leaf area) [1]: not more than 10%

SMILES: CCC(C)Nc1c(-c2cc(F)cc(F)c2F)c(Cl)nc2ncnn12 (racemic) [Compound I-8]
- infection (% diseased leaf area) [3]: not more than 15%
- infection [2]: not more than 7%
- infection (%-attack of the whole leaf surface) [4]: not more than 5%

SMILES: C=C(C)CN(CC)c1c(-c2ccc(Cl)cc2F)c(Cl)nc2ncnn12 [Compound I-90]
- infection [2]: not more than 7%

SMILES: CCC(C)Nc1c(-c2ccc(Cl)cc2F)c(Cl)nc2ncnn12 (racemic) [Compound I-91]
- infection (% diseased leaf area) [1]: not more than 10%
- infection [2]: not more than 7%

SMILES: CC(Nc1c(-c2cc(F)cc(F)c2F)c(Cl)nc2ncnn12)C(F)(F)F (racemic) [Compound I-17]
- infection (% diseased leaf area) [3]: not more than 15%
- infection [2]: not more than 7%
- infection (%-attack of the whole leaf surface) [4]: not more than 5%

SMILES: CC(Nc1c(-c2ccc(Cl)cc2F)c(Cl)nc2ncnn12)C(C)(C)C (racemic) [Compound I-97]
- infection (% diseased leaf area) [1]: not more than 10%
- infection [2]: not more than 7%

SMILES: CC(C)Nc1c(-c2cc(F)cc(F)c2F)c(Cl)nc2ncnn12 [Compound I-2, 5-chloro-6-(2,3,5-trifluorophenyl)-7-isopropylamino-[1,2,4]-triazolo[1,5-a]pyrimidine]
- infection (% diseased leaf area) [3]: not more than 15%
- infection [2]: not more than 7%
- infection (%-attack of the whole leaf surface) [4]: not more than 5%
